Results are given in words; binding and its absence hold for the method and conditions named. In cells and extracts the contact can be indirect. Some entries that bind do so weakly or less than the wild type.

Amino acid sequences for entries named in this document (tags omitted).
UniProt P51532: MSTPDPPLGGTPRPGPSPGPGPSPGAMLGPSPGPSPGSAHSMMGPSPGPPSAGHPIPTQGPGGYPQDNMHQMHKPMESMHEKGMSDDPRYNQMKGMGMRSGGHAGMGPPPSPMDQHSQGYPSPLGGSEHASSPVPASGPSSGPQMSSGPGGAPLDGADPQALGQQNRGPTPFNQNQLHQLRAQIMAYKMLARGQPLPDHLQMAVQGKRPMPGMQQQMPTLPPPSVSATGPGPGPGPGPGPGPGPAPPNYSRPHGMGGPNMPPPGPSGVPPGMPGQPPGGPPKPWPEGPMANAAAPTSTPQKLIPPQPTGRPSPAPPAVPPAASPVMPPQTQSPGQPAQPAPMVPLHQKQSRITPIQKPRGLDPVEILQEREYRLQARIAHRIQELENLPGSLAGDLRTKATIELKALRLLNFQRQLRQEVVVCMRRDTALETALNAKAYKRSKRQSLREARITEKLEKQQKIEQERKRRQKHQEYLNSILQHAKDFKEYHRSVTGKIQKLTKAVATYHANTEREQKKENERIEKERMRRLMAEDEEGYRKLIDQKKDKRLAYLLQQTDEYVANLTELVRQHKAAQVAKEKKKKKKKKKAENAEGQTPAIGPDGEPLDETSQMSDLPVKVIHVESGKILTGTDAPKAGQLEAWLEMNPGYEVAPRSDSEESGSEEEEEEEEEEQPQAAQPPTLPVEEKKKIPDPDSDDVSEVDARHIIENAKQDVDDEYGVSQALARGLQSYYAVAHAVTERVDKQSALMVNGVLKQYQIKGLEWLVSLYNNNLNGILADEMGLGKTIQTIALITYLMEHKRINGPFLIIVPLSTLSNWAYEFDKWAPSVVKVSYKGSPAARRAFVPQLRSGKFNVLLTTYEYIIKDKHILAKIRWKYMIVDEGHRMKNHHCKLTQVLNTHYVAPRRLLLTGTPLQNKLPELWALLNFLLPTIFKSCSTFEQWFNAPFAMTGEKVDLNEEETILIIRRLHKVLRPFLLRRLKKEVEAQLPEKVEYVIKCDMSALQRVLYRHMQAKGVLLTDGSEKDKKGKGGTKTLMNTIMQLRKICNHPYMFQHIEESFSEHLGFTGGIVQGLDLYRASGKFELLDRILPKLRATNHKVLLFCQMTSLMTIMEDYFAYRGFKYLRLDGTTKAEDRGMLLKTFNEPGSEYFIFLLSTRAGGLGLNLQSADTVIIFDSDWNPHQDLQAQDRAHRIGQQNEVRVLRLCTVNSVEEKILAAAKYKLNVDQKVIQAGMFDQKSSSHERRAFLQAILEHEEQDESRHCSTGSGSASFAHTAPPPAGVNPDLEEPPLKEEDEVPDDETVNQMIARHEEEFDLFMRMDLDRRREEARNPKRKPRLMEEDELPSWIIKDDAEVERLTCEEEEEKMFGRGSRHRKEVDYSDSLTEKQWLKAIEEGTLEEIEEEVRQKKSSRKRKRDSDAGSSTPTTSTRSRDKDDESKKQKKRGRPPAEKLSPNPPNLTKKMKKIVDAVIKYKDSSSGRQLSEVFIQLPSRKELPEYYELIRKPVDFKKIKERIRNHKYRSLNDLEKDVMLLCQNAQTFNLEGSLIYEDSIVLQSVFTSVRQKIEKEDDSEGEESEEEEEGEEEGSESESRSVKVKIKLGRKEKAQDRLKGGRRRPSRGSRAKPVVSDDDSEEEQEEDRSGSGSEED
UniProt P50750: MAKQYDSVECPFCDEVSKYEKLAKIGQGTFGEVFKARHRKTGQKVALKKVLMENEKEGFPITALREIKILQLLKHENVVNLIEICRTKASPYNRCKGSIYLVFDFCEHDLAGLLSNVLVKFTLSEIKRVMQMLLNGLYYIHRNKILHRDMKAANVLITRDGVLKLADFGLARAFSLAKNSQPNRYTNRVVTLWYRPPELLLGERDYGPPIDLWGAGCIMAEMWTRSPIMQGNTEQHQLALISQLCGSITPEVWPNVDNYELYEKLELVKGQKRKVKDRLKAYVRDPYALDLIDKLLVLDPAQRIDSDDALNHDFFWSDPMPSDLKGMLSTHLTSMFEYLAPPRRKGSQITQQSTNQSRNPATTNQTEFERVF

The values below come from patent US10941126B2, “Bridged bicycloalkyl-substituted aminothiazoles and their methods of use” (Temple University—Of The Commonwealth System of Higher …, priority 2017, dated 2021).

The target of assay [1] is SMARCA4 (human) (UniProt P51532). Description: FIG. 43A: co-immunoprecipitation from YB5 lysate with anti-CDK9 antibody, Western blot. On the technique in general: A western blot detects proteins with antibodies after separation by electrophoresis.
Assay [2] shares this target. Description: co-immunoprecipitation from YB5 lysate with anti-CDK9 antibody, Western blot.
Assay [3] shares this target. Description: co-immunoprecipitation from transfected HEK293T lysate, Western blot.
Assay [4] has the same target. Description: FIG. 43B bottom: IP with SMARCA4 antibody from HEK293T cells transfected with GFP-CDK9, co-precipitation of GFP-CDK9 by Western blot.
Assay [5] has as its target T1, CDK9 (Homo sapiens, UniProt P50750). Description: FIG. 43B top: IP with FLAG antibody from HEK293T cells transfected with FLAG-SMARCA4, co-precipitation of CDK9 by Western blot.
Assay [6] has as its target T1, CDK9. Description: co-immunoprecipitation from transfected HEK293T lysate with FLAG antibody, Western blot for CDK9.

Turning to “CDK9 (from UniProt P50750 1-372) (enzyme)”, the binding entry with SMARCA4 (human) [1] and with SMARCA4 (human) [2] was “binds” throughout.

In the case of GFP-CDK9 (from UniProt P50750 1-372), the binding result with SMARCA4 (human) [3] and with SMARCA4 (human) [4] was “binds” in each case.

In the case of “FLAG-SMARCA4 (from UniProt P51532 1-1647)”, the binding result with CDK9 [5] and in the assay with CDK9 [6] was “binds” each time.
